# According to the supplement of paper PMC6289059:
# This is one part of the list. Many values rest on one well or one pass, so single values are uncertain.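 The cells are hepatocyte-like cells grown from human stem cells in which the DGUOK gene was disrupted by CRISPR, a model of liver mtDNA depletion syndrome. Each well's ATP signal was scored against the other wells on its plate, and a drug counted as a primary hit when its score was 3 or higher.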
# Test system: DGUOK Δ14/Δ5 iPSC-derived hepatocyte-like cells (SV20)
# Test: ATP level (CellTiter-Glo luminescence) Z score relative to plate distribution, under 2-DG glycolysis block; higher = more cellular ATP (rescue of mitochondrial ATP production)
# Conditions: 5 µM; treatment time: day 15 to day 20 of differentiation (5 days); 2-deoxy-D-glucose: 20 mM for 24 h before assay
row,SMILES,ATP level
1,Cn1nnnc1SCC1=C(C(=O)O)N2C(=O)[C@@H](NC(=O)[C@H](O)c3ccccc3)[C@H]2SC1,inactive: 1.93
2,COc1ccc(NS(=O)(=O)c2ccc(N)cc2)nn1,inactive: 2.09
3,Nc1ccc(C(=O)NCC(=O)O)cc1,inactive: -3.59
4,OC[C@H]1O[C@@H](Oc2ccc(O)cc2)[C@H](O)[C@@H](O)[C@@H]1O,inactive: 0.759
5,Nc1ccc(S(=O)(=O)c2ccc(N)cc2)cc1,inactive: -2.58
6,CN(C)CCc1c[nH]c2ccc(Cn3cncn3)cc12,inactive: -17.1
7,OCCN1CCN(CCCN2c3ccccc3Sc3ccc(Cl)cc32)CC1,inactive: -7.42
8,COC(=O)C1=CO[C@@H](O[C@@H]2O[C@H](CO)[C@@H](O)[C@H](O)[C@H]2O)[C@@H]2[C@@H](C)[C@@H](O)C[C@H]12,inactive: -3.1
9,N[C@H]1C(O)O[C@H](CO)[C@@H](O)[C@@H]1O (stereo partly specified),inactive: 1.5
10,C=C1C[C@H]2[C@@H]3C=C(C)C4=CC(=O)CC[C@]4(C)[C@H]3CC[C@]2(C)[C@@]1(OC(C)=O)C(C)=O,inactive: 0.919
11,"NC(C(=O)O)C(O)C(=O)O (stereo not drawn) [d,l-threo-3-HYDROXYASPARTIC ACID]",inactive: -0.196
12,N=C(N)NC(=N)N1CCOCC1,inactive: 2.29
13,CC(=O)Oc1cccc2c1C(=O)c1c(OC(C)=O)cc(C(=O)O)cc1C2=O,inactive: -5.46
14,CC1NC(=O)NC1=O (stereo unspecified),inactive: -0.688
15,Cc1ncc(CSSCc2cnc(C)c(O)c2CO)c(CO)c1O,inactive: -0.792
16,CCn1cc(C(=O)O)c(=O)c2cnc(N3CCNCC3)nc21,inactive: -0.533
17,NCCS(=O)(=O)O,inactive: 1.88
18,COc1cc2nc(N3CCN(C(=O)c4ccco4)CC3)nc(N)c2cc1OC,inactive: -2.24
19,O=c1c(O)cccc2cc(O)c(O)c(O)c12,inactive: -0.394
20,Cc1ccc(S(=O)(=O)NC(=O)NN2CC3CCCC3C2)cc1 (stereo unspecified),inactive: 2.89
21,CC(=O)N[C@@H](CC(=O)N[C@@H](CCC(=O)O)C(=O)O)C(=O)O,inactive: -2.42
22,Nc1nc(=O)c2[nH]c(=O)cnc2[nH]1,inactive: 0.448
23,O=C(O)c1cc2ccccc2[nH]1,inactive: -1.11

row,SMILES,ATP level
1,C#CCN(C)Cc1ccccc1,inactive: 1.91
2,CC(=O)O[C@H]1CC[C@@]2(C)[C@H](CC[C@@H]3[C@@H]2CC[C@]2(C)[C@@H]4[C@H](C[C@@H]32)O[C@]2(CC[C@@H](C)CO2)[C@H]4C)C1,active: 3.11
3,CCCCCC(C)N (stereo unspecified),inactive: -0.955
4,O=C(O)CCC(=O)OC[C@@H](NC(=O)C(Cl)Cl)[C@H](O)c1ccc([N+](=O)[O-])cc1,inactive: -1.27
5,COc1ccc2cc(CCC(C)=O)ccc2c1,inactive: 2.35
6,COc1ccc(-c2oc3c(CC=C(C)C)c(O[C@@H]4O[C@H](CO)[C@@H](O)[C@H](O)[C@H]4O)cc(O)c3c(=O)c2O[C@@H]2O[C@@H](C)[C@H](O)[C@@H](O)[C@H]2O)cc1,inactive: -0.726
7,CCN(CC)CCNC(=O)c1cc(S(C)(=O)=O)ccc1OC,active: 3.94
8,Oc1c(I)cc(I)c2cccnc12,inactive: 1
9,CN1C2CCCC1CC(NC(=O)c1nn(C)c3ccccc13)C2 (stereo unspecified),inactive: 1.08
10,CC(C)CCC[C@@H](C)[C@H]1CC[C@H]2[C@@H]3CC=C4CC(=O)CC[C@]4(C)[C@H]3CC[C@]12C,inactive: 1.05
11,CC(C)N1CCN(c2ccc(OCC3COC(Cn4cncn4)(c4ccc(Cl)cc4Cl)O3)cc2)CC1 (stereo unspecified),inactive: -4.28
12,CCN(Cc1ccncc1)C(=O)C(CO)c1ccccc1 (stereo unspecified),inactive: 0.108
13,OC(CCN1CCCCC1)(c1ccccc1)C1CC2C=CC1C2 (stereo unspecified),inactive: -0.37
14,CCN(CC)CC#CCOC(=O)C(O)(c1ccccc1)C1CCCCC1 (stereo unspecified),inactive: -0.654
15,Cc1ncc([N+](=O)[O-])n1CCO,inactive: 1.74
16,Oc1nc2cc(Cl)c(Cl)cc2nc1O,inactive: -0.0307
17,CC(=O)OC1CCC23CC1(C)CCC2C(C)(C)CC3OC(C)=O (stereo unspecified),inactive: -0.428
18,C=CC[C@@H]1/C=C(\C)C[C@H](C)C[C@H](OC)[C@H]2O[C@@](O)(C(=O)C(=O)N3CCCC[C@H]3C(=O)O[C@H](/C(C)=C/[C@@H]3CC[C@@H](O)[C@H](OC)C3)[C@H](C)[C@@H](O)CC1=O)[C@H](C)C[C@@H]2OC,inactive: 0.408
19,COc1ccc2[nH]cc(CCNC(C)=O)c2c1,inactive: -0.101
20,COc1c2ccoc2nc2c(OC)c(OCC(O)C(C)(C)O)ccc12 (stereo unspecified),inactive: 0.664
21,CC[C@H]1OC(=O)[C@H](C)[C@@H](O[C@H]2C[C@@](C)(OC)[C@@H](O)[C@H](C)O2)[C@H](C)[C@@H](O[C@@H]2O[C@H](C)C[C@H](N(C)C)[C@H]2O)[C@](C)(O)C[C@@H](C)/C(=N\OCOCCOC)[C@H](C)[C@@H](O)[C@]1(C)O,active: 4.76
22,CC/C=C\C/C=C\C/C=C\C/C=C\C/C=C\CCCC(=O)OCC [OMEGA-3-ACID ESTERS (EPA shown)],inactive: 1.58
23,CC(=O)N[C@@H](CC(C)C)C(=O)O,inactive: -0.807

row,SMILES,ATP level
1,C=CC[S+]([O-])C[C@H](N)C(=O)O (mixture of isomers),inactive: -16.1
2,Nc1nc(=O)c2nc(CNc3ccc(C(=O)N[C@@H](CCC(=O)O)C(=O)O)cc3)cnc2[nH]1,active: 3.58
3,CC(=O)OC1CC2(C)C(C(C)=O)CCC2C2CCC3=CC(=O)CCC3(C)C12 (stereo unspecified),inactive: -3.45
4,C#CCCCCCCCCCCCC(O)CC(O)CO (stereo unspecified),inactive: -2.12
5,O=C1CN2Cc3c(ccc(Cl)c3Cl)N=C2N1,inactive: 1.92
6,CC(C)NCC(O)COc1ccc(COCCOC(C)C)cc1 (stereo unspecified),inactive: 1.43
7,Nc1nc(=S)c2ncn([C@@H]3O[C@H](CO)[C@@H](O)[C@H]3O)c2[nH]1,inactive: 0.778
8,O=c1cc(-c2ccc(O)cc2)oc2cc(O)cc(O)c12,inactive: 1.27
9,CCOc1cccc(C(=O)c2ccc(O)c(O)c2O)c1,inactive: 0.875
10,CC(=O)OCC(COC(C)=O)OC(C)=O,inactive: -0.145
11,CN(C)CCN(Cc1cccs1)c1ccccn1,inactive: -3.67
12,COc1ccc2c(c1)OCc1c-2oc2cc(OC)ccc12,inactive: -1.63
13,COc1ccc([C@H]2COc3c(ccc(O)c3OC)C2)c(OC)c1O,inactive: 0.737
14,NC(CO)(CO)CO,inactive: 1.09
15,NCCC[C@H](N)C(=O)O,inactive: -0.574
16,NC(=O)N1c2ccccc2C=Cc2ccccc21,inactive: 1.17
17,CCCNC(C)C(=O)Nc1ccccc1C (stereo unspecified),inactive: 0.956
18,COc1ccc(CN(CCN(C)C)c2ccccn2)cc1,inactive: -1.53
19,Nc1ncn([C@@H]2O[C@H](CO)[C@@H](O)[C@H]2O)c(=O)n1,inactive: 1.43
20,CC(COc1ccccc1)N(CCCl)Cc1ccccc1 (stereo unspecified),inactive: -1.9
21,CC(=O)c1ccc(S(=O)(=O)NC(=O)NC2CCCCC2)cc1,inactive: -2.98
22,OC[C@H]1O[C@H]([S-])[C@H](O)[C@@H](O)[C@@H]1O.[Au+],inactive: -16.8
23,O=C(NCc1ccccc1)OCCO,inactive: 1.08

# Taken from the listing (seven entries):
row,SMILES,ATP level
20,Cc1ccc(S(=O)(=O)NC(=O)NN2CC3CCCC3C2)cc1 (stereo unspecified),inactive: 2.89
21,CC(=O)N[C@@H](CC(=O)N[C@@H](CCC(=O)O)C(=O)O)C(=O)O,inactive: -2.42
22,Nc1nc(=O)c2[nH]c(=O)cnc2[nH]1,inactive: 0.448
23,O=C(O)c1cc2ccccc2[nH]1,inactive: -1.11
1,C#CCN(C)Cc1ccccc1,inactive: 1.91
2,CC(=O)O[C@H]1CC[C@@]2(C)[C@H](CC[C@@H]3[C@@H]2CC[C@]2(C)[C@@H]4[C@H](C[C@@H]32)O[C@]2(CC[C@@H](C)CO2)[C@H]4C)C1,active: 3.11
3,CCCCCC(C)N (stereo unspecified),inactive: -0.955

# Additional entries follow:

row,SMILES,ATP level
1,Cc1cc(=O)oc2cc(O)ccc12,inactive: 2.95
2,Cc1nc2ccccc2n1Cc1ccc(Cl)cc1,inactive: -11.5
3,Cn1c(=O)c2nc[nH]c2n(C)c1=O,inactive: 0.241
4,c1ccc(C2CN3CCSC3=N2)cc1 (stereo unspecified),inactive: -3.72
5,COc1cc2cc3c4cc(OC)c(OC)cc4cc[n+]3c(C)c2cc1OC,inactive: -6
6,CC(=O)O[C@H]1CC[C@]2(C)[C@H]3CC[C@]45OC(=O)[C@@]6(CC[C@@H](C)[C@H](C)[C@H]64)CC[C@@]5(C)[C@]3(C)CC[C@H]2C1(C)C,inactive: -0.806
7,COc1cc(C(=O)O)cc(OC)c1O,inactive: 1.42
8,Cc1scc2c1N(C(=O)CN1CCN(C)CC1)c1ccccc1NC2=O,inactive: 2.42
9,CO/N=C(\C(=O)N[C@@H]1C(=O)N2C(C(=O)O)=C(CSc3nc(=O)c(O)nn3C)CS[C@H]12)c1csc(N)n1,inactive: 2.4
10,O=C(O)CS,inactive: -1.72
11,NC1(C(=O)O)CCCC1,inactive: -1.68
12,NCCCC[C@H](N[C@@H](CCc1ccccc1)C(=O)O)C(=O)N1CCC[C@H]1C(=O)O,inactive: 2.47
13,C[C@]12CCC(=O)C=C1CC[C@@H]1[C@@H]2[C@@H](O)C[C@@]2(C)[C@H]1CC[C@]2(O)C(=O)COC(=O)CCC(=O)O,inactive: 1.92
14,CC(C)(C)NC[C@H](O)COc1nsnc1N1CCOCC1,inactive: -0.39
15,CCOC(=O)[C@H](CCc1ccccc1)N[C@H]1CCc2ccccc2N(CC(=O)O)C1=O,inactive: -0.996
16,CC(C)CCC[C@@H](C)[C@H]1CC[C@H]2[C@@H]3CC[C@H]4C[C@H](O)CC[C@]4(C)[C@H]3CC[C@]12C,inactive: 1.18
17,COC1=C(OC)C(=O)C(CCCCCCCCCCO)=C(C)C1=O,inactive: -0.812
18,COc1cc(-c2coc3cc(O)c(OC)c(O)c3c2=O)cc(O)c1OC,inactive: -1.28
19,CCOC(=O)OC(C)OC(=O)[C@@H]1N2C(=O)[C@@H](NC(=O)[C@H](N)c3ccccc3)[C@H]2SC1(C)C (stereo partly specified),active: 4.92
20,CC(=O)OCC(=O)[C@@]12N=C(C)O[C@@H]1C[C@H]1[C@@H]3CCC4=CC(=O)C=C[C@]4(C)[C@H]3[C@@H](O)C[C@@]12C,active: 3.09
21,C1CCN2C[C@@H]3C[C@H](CN4CCCC[C@@H]34)[C@H]2C1,inactive: -2.37
22,COc1ccc(C(=O)/C=C/c2ccccc2)cc1,inactive: -2.89
